Measurements taken from PubChem BioAssay AID2685 (National Center for Advancing Translational Sciences (NCATS), 2010).
Some of the results follow. Further columns of the screen follow, without active or inactive calls. Most of these compounds were active or inconclusive in the main read-out, so they are no random draw. Words in brackets tell the shape of the fitted curve; partial curves, single points and poor fits give uncertain potencies.

Assay: qHTS Assay for Lipid Storage Modulators in Drosophila S3 Cells;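 as to cell number change: cells counted by Cell Tracker Red CMTPX staining in the red channel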
Conditions: BODIPY lipid droplet fluorescence, 18-24 h; for cell number change: measured here: cell count max response, cells fed with added oleic acid
Procedure, shortened: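 Drosophila S3 cells loaded with oleic acid (400 uM, as added) and compounds at several concentrations; lipid droplets imaged by 488-nm laser-scanning cytometry, 500–530 nm intensity and object ratio to cell channel. Percent activity normalized to 20 uM Triacsin C.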

[1] = measured here: lipid fluorescence (Fed channel) AC50, cells fed with added oleic acid
[2] = measured here: cell number channel AC50, cells fed with added oleic acid

## COc1ccc(Cl)cc1NC(=S)NCCSc1ccc(C)cc1
  cell number change: -9.59%
[1]
  AC50: 0.0058 µM [falling, full curve, poor fit]

## CC(C)(C)OC(=O)N1CCC[C@H]1C(=O)O
  cell number change: 27.2%

## COc1cc2ccccc2cc1C(=O)NNC(=O)c1ccccc1O
  cell number change: -11.9%

## CC(C)OP(=O)(OC(C)C)/C(C=O)=N\Nc1ccc([N+](=O)[O-])cc1
  cell number change: -21.5%
[2]
  AC50: 1.03 µM [rising, full curve, poor fit]
[1]
  AC50: 0.092 µM [falling, full curve, poor fit]

## CCOc1cc(/C=N/O)cc(Br)c1OCC(=O)NCc1ccccc1
  cell number change: -1.38%
[1]
  AC50: 8.2 µM [rising, partial curve]

## Cc1cc(C)nc(SCC(=O)Nc2ccc(N3CCOCC3)c(Cl)c2)n1
[2]
  AC50: 2.91 µM [rising, partial curve]
[1]
  AC50: 2.91 µM [rising, partial curve]

## CC(C)c1ccc(S(=O)(=O)N2CCN(CCC(=O)Nc3ccc(N(C)C)cc3)CC2)cc1
[1]
  AC50: 0.58 µM [falling, single point]

## CC1COc2ccccc2N1S(=O)(=O)c1ccccc1 (stereo not given)
  cell number change: 34.4%
[1]
  AC50: 18.4 µM [rising, partial curve, poor fit]

## CC(C)CCN1CCNC(=O)C1CC(=O)N(C)CCCN1CCOCC1 (stereo not given)
  cell number change: -13.9%

## COc1cc2nc(CN(C)Cc3ccc(C(C)(C)C)cc3)[nH]c(=O)c2cc1OC
  cell number change: 87.3%
[2]
  AC50: 29.1 µM [rising, single point]
[1]
  AC50: 6.51 µM [rising, single point]

## CC(=O)c1ccc(N2CCN(S(=O)(=O)c3c(C)[nH]c(C)c3C(=O)N3CCCC3)CC2)cc1
  cell number change: 11.1%

## CCc1ccc(OCC(=O)NCCOc2ccccc2)cc1
  cell number change: 36.9%
[2]
  AC50: 20.6 µM [rising, single point]

## CCOc1ccc(Br)cc1S(=O)(=O)N1CCCN(C)CC1
  cell number change: 10.3%
[1]
  AC50: 0.116 µM [falling, single point]

## Cc1ccc(/C=N/NC(=O)C2(C)CC2(Br)Br)cc1 (stereo not given)
  cell number change: -12.2%
[1]
  AC50: 32.6 µM [falling, single point]

## N#C/C(=C\c1cccs1)C(=O)Nc1nccs1
  cell number change: -12.6%

## CCCCn1nnnc1NCc1cccnc1
[2]
  AC50: 6.51 µM [rising, single point]

## COC(=O)c1ccc(OCC(O)CN2CCC(C)CC2)cc1 (stereo not given)
  cell number change: -49.2%
[2]
  AC50: 4.61 µM [falling, full curve]
[1]
  AC50: 16.4 µM [falling, partial curve]

## Cc1cccc(-n2c(O)c(C=Nc3cccc(O)c3)c3ccccc3c2=O)n1
[2]
  AC50: 0.092 µM [falling, full curve]
[1]
  AC50: 0.146 µM [falling, full curve]

## CC(C)(C)C#CC(CCc1ccccc1)OS(N)(=O)=O (stereo not given)
  cell number change: -9.06%
[1]
  AC50: 0.58 µM [rising, single point]

## CC1(C)OC(=O)C(=CNC(=O)c2c(F)cccc2F)C(=O)O1
  cell number change: 37.2%
[2]
  AC50: 32.6 µM [rising, single point]

## CC(C)(C)c1ccc(-c2noc(CCC(=O)NCc3ccco3)n2)cc1
  cell number change: -69%

## CCCNC(=O)c1ccc(SCC(=O)N(CC)CC)c([N+](=O)[O-])c1
  cell number change: 18.7%
[2]
  AC50: 4.11 µM [rising, full curve, poor fit]
[1]
  AC50: 4.11 µM [rising, full curve, poor fit]

## CC(Oc1ccccc1)C(=O)N=Nc1c(O)[nH]c2ccc(Br)cc12 (stereo not given)
  cell number change: -0.135%

## Cc1cccc(NC(=O)CCN2CC(C)CC(C)C2)c1 (stereo not given)
  cell number change: 9.07%
[1]
  AC50: 6.51 µM [falling, partial curve, poor fit]

## O=C(CN1C2=NCCN2c2ccccc21)c1ccc(Br)s1
  cell number change: 19.9%
[1]
  AC50: 2.06 µM [rising, partial curve, poor fit]

## CCC(C)[C@@H](N)C(=O)N/N=C/c1ccc2ncccc2c1 (stereo not given in full)
  cell number change: -11.7%
[2]
  AC50: 0.731 µM [falling, single point]

## O=C(Nc1ccc(C(=O)O)cc1)/C(=C\C=C\c1ccccc1)NC(=O)c1ccccc1Cl
  cell number change: 11.9%
[1]
  AC50: 0.58 µM [falling, single point]

## O=[N+]([O-])c1ccc(O)c2ncccc12
  cell number change: -16.9%
[1]
  AC50: 16.4 µM [falling, single point]

## COc1ccc(OC)c(CCNC(=O)Cn2sc3nc(C)cc(C)c3c2=O)c1
  cell number change: -89.1%
[2]
  AC50: 23.1 µM [falling, partial curve]
[1]
  AC50: 8.2 µM [falling, partial curve]

## COc1ccccc1NC(=O)c1cc(C(=O)O)ccc1C(=O)O
  cell number change: -4.48%

## COc1ccc(Nc2cc(NCCCO)c([N+](=O)[O-])c3nonc23)cc1
  cell number change: 114%
[2]
  AC50: 29.1 µM [rising, single point]
[1]
  AC50: 14.6 µM [rising, partial curve]

## Cc1onc(-c2ccccc2)c1C(=O)Nc1nnc(CC(C)C)s1
  cell number change: -0.901%

## CCc1nc(SCC(=O)Nc2ccc(F)cc2F)c2c(=O)n(C)c(=O)n(C)c2n1
  cell number change: -19.4%
[1]
  AC50: 0.731 µM [falling, full curve]

## CN(Cc1ccccc1)S(=O)(=O)c1ccc(N2CCOCC2)nc1
  cell number change: -23%

## CCN(CC)CCn1c2ccccc2c2nc3ccccc3nc21
  cell number change: -19.4%
[1]
  AC50: 6.51 µM [falling, single point]

## CCCCCOC(=O)CC(C(=O)OCCCCC)N1CCCCC1 (stereo not given)
  cell number change: -41.2%
[2]
  AC50: 11.6 µM [falling, partial curve]
[1]
  AC50: 13 µM [falling, partial curve]

## Cc1cc(-c2nn(-c3ccccc3F)cc2CN2CCN(c3ccccn3)CC2)c(C)s1
  cell number change: 28.5%
[1]
  AC50: 10.3 µM [rising, partial curve]

## COC(=O)c1cccc(NC(=O)CCc2c(C)noc2C)c1
  cell number change: 1.81%
[1]
  AC50: 5.8 µM [falling, full curve, poor fit]

## CCc1cccc(CC)c1-n1c(SCc2cc(=O)n3ccsc3n2)nnc1-c1cccnc1
  cell number change: -7.73%
[1]
  AC50: 18.4 µM [rising, single point]

## c1ccc(CCN2CN(CCCN3CCOCC3)c3nc4ccccc4n3C2)cc1
[1]
  AC50: 0.164 µM [falling, full curve, poor fit]

## COc1ccc(S(=O)(=O)NCc2ccc(C(=O)NCCCN3CCCC(C)C3)cc2)cc1 (stereo not given)
[1]
  AC50: 29.1 µM [rising, single point]

## COc1cccc(CNC(=O)CN2C(=O)COc3ccc(S(=O)(=O)N4CCCC4)cc32)c1
  cell number change: -24.3%
[1]
  AC50: 0.731 µM [falling, full curve]

## O=C(O)CCn1cc(-c2ccc(F)cc2)nc1-c1ccncc1
  cell number change: -6.34%
[1]
  AC50: 1.16 µM [rising, full curve]

## CCn1c(SCc2ccc(Cl)c(Cl)c2)nnc1C(C)NC(=O)c1ccc(OC)cc1 (stereo not given)
  cell number change: 11%
[1]
  AC50: 29.1 µM [falling, single point]

## O=C(CN1CCN(c2ccc(F)cc2)CC1)N1CCOCC1
  cell number change: -0.2%
[1]
  AC50: 1.64 µM [falling, partial curve, poor fit]

## Cc1cccc(NC(=O)c2cc([N+](=O)[O-])ccc2NC2CCCCC2)c1
  cell number change: -4.98%
[1]
  AC50: 1.3 µM [falling, full curve, poor fit]

## COc1cc(OC)c2cc(C(=O)N[C@H](C(=O)N3CCC[C@H]3C(=O)O)C(C)C)n(C)c2c1
  cell number change: 8.74%
[1]
  AC50: 29.1 µM [rising, single point]

## COc1ccc([C@H]2C=C(C(=O)O)O[C@@H](OCc3ccc(CO)cc3)C2)cc1
[1]
  AC50: 16.4 µM [rising, single point]

## Cc1ccc(C(=O)/C=C/c2c(C)nn(-c3ccccc3)c2Cl)cc1
[2]
  AC50: 6.51 µM [rising, single point]
[1]
  AC50: 4.11 µM [rising, partial curve, poor fit]

## COc1ccc(C)cc1NCc1cc(=O)oc2cc(-c3ccccc3)c(O)cc12
  cell number change: -19.4%
[1]
  AC50: 29.1 µM [falling, single point]

## O=C(O)CSc1nnc(Nc2ccccc2)n1-c1ccccc1
  cell number change: 59.5%
[2]
  AC50: 29.1 µM [rising, single point]
[1]
  AC50: 29.1 µM [rising, single point]

## O=C(C1CCN(CC2CC=CCC2)CC1)N(CCc1ccccc1)Cc1ccccc1 (stereo not given)
  cell number change: -6.96%
[1]
  AC50: 29.1 µM [rising, single point]

## CC(C)CC(CCc1ccccc1)OS(N)(=O)=O (stereo not given)
  cell number change: -7.12%
[1]
  AC50: 13 µM [rising, partial curve, poor fit]

## O=C(NCc1ccncc1)c1cncc(Br)c1
  cell number change: 156%

## CCOC(=O)c1c(CSC(=N)N)n(-c2ccc(C)cc2)c2cc(Br)c(OC(C)=O)cc12
  cell number change: -22.7%
[1]
  AC50: 29.1 µM [falling, single point]

## O=C(/C=C/c1ccc(Cl)cc1)NC(=S)Nc1ccccc1C(=O)O
  cell number change: 23.2%
[1]
  AC50: 4.11 µM [rising, single point]

## CN1CCc2nc(SCC(=O)Nc3ccc(OC(F)(F)F)cc3)c(C#N)c(-c3cccs3)c2C1
  cell number change: 0.241%

## Nc1ccc(Nc2ccccc2)c(S(=O)(=O)O)c1
  cell number change: 6.86%
[1]
  AC50: 0.184 µM [rising, full curve, poor fit]

## CCCSC1C(C)=C(C)C(=O)N1Cc1ccccc1 (stereo not given)
  cell number change: -5.22%
[1]
  AC50: 29.1 µM [falling, single point]

## O=C(Nc1ccc2ccccc2c1)/C(=C\c1ccc2c(c1)OCO2)NC(=O)c1ccco1
  cell number change: 38.6%
[2]
  AC50: 29.1 µM [rising, single point]
[1]
  AC50: 29.1 µM [rising, single point]

## CC(C)CC(OC(=O)c1nsc(Cl)c1Cl)C(=O)NCC1CCCO1 (stereo not given)
  cell number change: 3.75%

## CCc1c(C#N)c(N)nc(SCC(=O)OCc2ccccc2)c1C#N
  cell number change: 8.99%
[1]
  AC50: 0.82 µM [rising, full curve]
